Assay results published in patent publication US20110262477A1 (priority 2008, published 2011).
Some results were stated once for a whole list of compounds, not compound by compound.

B1: Eap: recombinant His-tagged staphylococcal envelope associated protein Eap (SEQ ID NO:4) purified from E. coli, vaccine antigen (protein, listed as Staphylococcus aureus)
chain: MKFKSLITTTLALGVLASTGANFNNNEASAAAKPLDKSSSSLHHGYSKVHVPYAITVNGTSQNILSSLTFNKNQNISYKDLEDRVKSVLKSDRGISDIDLRLSKQAKYTVYFKNGTKKVIDLKAGIYTADLINTSEIKAININVDTKKQVEDKKKDKANYQVPYTITVNGTSQNILSNLTFNKNQNISYKDLEDKVKSVLESNRGITDVDLRLSKQAKYTVNFKNGTKKVIDLKSGIYTANLINSSDIKSININVDTKKHIENKAKRNYQVPYSINLNGTSTNILSNLSFSNKPWTNYKNLTSQIKSVLKHDRGISEQDLKYAKKAYYTVYFKNGGKRILQLNSKNYTANLVHAKDVKRIEITVKTGTKAKADRYVPYTIAVNGTSTPILSDLKFTGDPRVGYKDISKKVKSVLKHDRGIGERELKYAKKATYTVHFKNGTKKVININSNISQLNLLYVQDIKKIDIDVKTGTKAKADSYVPYTIAVNGTSTPILSKLKISNKQLISYKYLNDKVKSVLKSERGISDLDLKFAKQAKYTVYFKNGKKQVVNLKSDIFTPNLFSAKDIKKIDIDVKQYTKSKKNK
modifications: His-tag
B2: Emp: recombinant His-tagged staphylococcal envelope associated protein Emp (SEQ ID NO:2) purified from E. coli, vaccine antigen (protein, listed as Staphylococcus aureus)
chain: MKKKLLVLTMSTLFATQIMNSNHAKASVTESVDKKFVVPESGINKIIPAYDEFKNSPKVNVSNLTDNKNFVASEDKLNKIADSSAASKIVDKNFVVPESKLGNIVPEYKEINNRVNVATNNPASQQVDKHFVAKGPEVNRFITQNKVNHHFITTQTHYKKVITSYKSTHVHKHVNHAKDSINKHFIVKPSESPRYTHPSQSLIIKHHFAVPGYHAHKFVTPGHASIKINHFCVVPQINSFKVIPPYGHNSHRMHVPSFQNNTTATHQNAKVNKAYDYKYFYSYKVVKGVKKYFSFSQSNGYKIGKPSLNIKNVNYQYAVPSYSPTHYVPEFKGSLPAPRV
modifications: His-tag

System: S. aureus Newman
Experiment: Eap, Emp vaccination, murine renal abscess model (FIG. 5)
Conditions: kidneys of immunized mice; PBS mock 70%; FIG. 5E

Row | Molecule | surface abscesses [%]
1 | B1 | < 20
2 | B2 | < 20
